The list shows a part of the results.
How the values were obtained:
Assay in all cases: log2 fold change, soluble protein after heating vs DMSO (PISA); higher = thermal stabilisation; K562 lysate, 10 uM; active = over 0.2 and 3.5 SD of the protein, either way, in both replicates (recomputed)
[1] = compound: CN1CC[C@H](c2c(O)cc(O)c3c(=O)cc(-c4ccccc4Cl)oc23)[C@H](O)C1 [alvocidib]
In short: (§1)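 K562 pellets were dounce-homogenised in PBS pH 7.4 containing 1 mM MgCl2, and the crude extract, at 1 mg/mL protein, was exposed to 10 μM compound for 30 min. Aliquots were heated for 3 min across 48°C-58°C, pooled, brought to 0.5% NP-40 at 4°C and spun at 21,000xg for 90 min, with the supernatant taken as soluble protein. TMTpro 16plex LC-MS/MS with equalised channel sums quantified that protein. Values are log-two fold changes in thermal stability relative to solvent controls, taken from duplicates.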

By UniProt entry, the sequences of proteins in these tests, tags left out. Where a name states a change or a piece, a line headed by the entry shows the natural chain unless it says otherwise.
UniProt Q13523: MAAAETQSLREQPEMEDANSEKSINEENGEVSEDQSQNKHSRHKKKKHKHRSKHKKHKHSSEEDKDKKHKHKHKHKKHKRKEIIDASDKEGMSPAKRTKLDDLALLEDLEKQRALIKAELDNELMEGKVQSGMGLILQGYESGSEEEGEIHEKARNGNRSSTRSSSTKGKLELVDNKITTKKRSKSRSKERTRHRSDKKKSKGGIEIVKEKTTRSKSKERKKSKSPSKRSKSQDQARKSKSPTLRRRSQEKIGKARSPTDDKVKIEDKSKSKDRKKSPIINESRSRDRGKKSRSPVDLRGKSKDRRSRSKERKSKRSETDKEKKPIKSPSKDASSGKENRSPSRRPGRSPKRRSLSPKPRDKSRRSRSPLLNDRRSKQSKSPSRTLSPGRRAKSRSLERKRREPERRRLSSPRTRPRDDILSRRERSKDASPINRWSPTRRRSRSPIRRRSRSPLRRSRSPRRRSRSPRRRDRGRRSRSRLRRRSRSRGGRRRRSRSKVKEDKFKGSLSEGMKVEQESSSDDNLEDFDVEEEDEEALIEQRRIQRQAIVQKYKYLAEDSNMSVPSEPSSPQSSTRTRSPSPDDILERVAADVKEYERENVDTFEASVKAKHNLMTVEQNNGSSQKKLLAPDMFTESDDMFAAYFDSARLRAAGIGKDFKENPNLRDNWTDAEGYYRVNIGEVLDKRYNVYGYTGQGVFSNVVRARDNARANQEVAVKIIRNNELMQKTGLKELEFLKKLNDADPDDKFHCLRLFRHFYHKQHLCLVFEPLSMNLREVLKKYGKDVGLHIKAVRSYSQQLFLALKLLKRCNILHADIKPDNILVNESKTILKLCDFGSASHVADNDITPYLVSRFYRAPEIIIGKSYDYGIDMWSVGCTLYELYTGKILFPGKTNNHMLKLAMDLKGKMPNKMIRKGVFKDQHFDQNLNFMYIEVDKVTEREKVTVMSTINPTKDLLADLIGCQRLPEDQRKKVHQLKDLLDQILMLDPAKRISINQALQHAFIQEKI
UniProt P78527, whole entry, looked up: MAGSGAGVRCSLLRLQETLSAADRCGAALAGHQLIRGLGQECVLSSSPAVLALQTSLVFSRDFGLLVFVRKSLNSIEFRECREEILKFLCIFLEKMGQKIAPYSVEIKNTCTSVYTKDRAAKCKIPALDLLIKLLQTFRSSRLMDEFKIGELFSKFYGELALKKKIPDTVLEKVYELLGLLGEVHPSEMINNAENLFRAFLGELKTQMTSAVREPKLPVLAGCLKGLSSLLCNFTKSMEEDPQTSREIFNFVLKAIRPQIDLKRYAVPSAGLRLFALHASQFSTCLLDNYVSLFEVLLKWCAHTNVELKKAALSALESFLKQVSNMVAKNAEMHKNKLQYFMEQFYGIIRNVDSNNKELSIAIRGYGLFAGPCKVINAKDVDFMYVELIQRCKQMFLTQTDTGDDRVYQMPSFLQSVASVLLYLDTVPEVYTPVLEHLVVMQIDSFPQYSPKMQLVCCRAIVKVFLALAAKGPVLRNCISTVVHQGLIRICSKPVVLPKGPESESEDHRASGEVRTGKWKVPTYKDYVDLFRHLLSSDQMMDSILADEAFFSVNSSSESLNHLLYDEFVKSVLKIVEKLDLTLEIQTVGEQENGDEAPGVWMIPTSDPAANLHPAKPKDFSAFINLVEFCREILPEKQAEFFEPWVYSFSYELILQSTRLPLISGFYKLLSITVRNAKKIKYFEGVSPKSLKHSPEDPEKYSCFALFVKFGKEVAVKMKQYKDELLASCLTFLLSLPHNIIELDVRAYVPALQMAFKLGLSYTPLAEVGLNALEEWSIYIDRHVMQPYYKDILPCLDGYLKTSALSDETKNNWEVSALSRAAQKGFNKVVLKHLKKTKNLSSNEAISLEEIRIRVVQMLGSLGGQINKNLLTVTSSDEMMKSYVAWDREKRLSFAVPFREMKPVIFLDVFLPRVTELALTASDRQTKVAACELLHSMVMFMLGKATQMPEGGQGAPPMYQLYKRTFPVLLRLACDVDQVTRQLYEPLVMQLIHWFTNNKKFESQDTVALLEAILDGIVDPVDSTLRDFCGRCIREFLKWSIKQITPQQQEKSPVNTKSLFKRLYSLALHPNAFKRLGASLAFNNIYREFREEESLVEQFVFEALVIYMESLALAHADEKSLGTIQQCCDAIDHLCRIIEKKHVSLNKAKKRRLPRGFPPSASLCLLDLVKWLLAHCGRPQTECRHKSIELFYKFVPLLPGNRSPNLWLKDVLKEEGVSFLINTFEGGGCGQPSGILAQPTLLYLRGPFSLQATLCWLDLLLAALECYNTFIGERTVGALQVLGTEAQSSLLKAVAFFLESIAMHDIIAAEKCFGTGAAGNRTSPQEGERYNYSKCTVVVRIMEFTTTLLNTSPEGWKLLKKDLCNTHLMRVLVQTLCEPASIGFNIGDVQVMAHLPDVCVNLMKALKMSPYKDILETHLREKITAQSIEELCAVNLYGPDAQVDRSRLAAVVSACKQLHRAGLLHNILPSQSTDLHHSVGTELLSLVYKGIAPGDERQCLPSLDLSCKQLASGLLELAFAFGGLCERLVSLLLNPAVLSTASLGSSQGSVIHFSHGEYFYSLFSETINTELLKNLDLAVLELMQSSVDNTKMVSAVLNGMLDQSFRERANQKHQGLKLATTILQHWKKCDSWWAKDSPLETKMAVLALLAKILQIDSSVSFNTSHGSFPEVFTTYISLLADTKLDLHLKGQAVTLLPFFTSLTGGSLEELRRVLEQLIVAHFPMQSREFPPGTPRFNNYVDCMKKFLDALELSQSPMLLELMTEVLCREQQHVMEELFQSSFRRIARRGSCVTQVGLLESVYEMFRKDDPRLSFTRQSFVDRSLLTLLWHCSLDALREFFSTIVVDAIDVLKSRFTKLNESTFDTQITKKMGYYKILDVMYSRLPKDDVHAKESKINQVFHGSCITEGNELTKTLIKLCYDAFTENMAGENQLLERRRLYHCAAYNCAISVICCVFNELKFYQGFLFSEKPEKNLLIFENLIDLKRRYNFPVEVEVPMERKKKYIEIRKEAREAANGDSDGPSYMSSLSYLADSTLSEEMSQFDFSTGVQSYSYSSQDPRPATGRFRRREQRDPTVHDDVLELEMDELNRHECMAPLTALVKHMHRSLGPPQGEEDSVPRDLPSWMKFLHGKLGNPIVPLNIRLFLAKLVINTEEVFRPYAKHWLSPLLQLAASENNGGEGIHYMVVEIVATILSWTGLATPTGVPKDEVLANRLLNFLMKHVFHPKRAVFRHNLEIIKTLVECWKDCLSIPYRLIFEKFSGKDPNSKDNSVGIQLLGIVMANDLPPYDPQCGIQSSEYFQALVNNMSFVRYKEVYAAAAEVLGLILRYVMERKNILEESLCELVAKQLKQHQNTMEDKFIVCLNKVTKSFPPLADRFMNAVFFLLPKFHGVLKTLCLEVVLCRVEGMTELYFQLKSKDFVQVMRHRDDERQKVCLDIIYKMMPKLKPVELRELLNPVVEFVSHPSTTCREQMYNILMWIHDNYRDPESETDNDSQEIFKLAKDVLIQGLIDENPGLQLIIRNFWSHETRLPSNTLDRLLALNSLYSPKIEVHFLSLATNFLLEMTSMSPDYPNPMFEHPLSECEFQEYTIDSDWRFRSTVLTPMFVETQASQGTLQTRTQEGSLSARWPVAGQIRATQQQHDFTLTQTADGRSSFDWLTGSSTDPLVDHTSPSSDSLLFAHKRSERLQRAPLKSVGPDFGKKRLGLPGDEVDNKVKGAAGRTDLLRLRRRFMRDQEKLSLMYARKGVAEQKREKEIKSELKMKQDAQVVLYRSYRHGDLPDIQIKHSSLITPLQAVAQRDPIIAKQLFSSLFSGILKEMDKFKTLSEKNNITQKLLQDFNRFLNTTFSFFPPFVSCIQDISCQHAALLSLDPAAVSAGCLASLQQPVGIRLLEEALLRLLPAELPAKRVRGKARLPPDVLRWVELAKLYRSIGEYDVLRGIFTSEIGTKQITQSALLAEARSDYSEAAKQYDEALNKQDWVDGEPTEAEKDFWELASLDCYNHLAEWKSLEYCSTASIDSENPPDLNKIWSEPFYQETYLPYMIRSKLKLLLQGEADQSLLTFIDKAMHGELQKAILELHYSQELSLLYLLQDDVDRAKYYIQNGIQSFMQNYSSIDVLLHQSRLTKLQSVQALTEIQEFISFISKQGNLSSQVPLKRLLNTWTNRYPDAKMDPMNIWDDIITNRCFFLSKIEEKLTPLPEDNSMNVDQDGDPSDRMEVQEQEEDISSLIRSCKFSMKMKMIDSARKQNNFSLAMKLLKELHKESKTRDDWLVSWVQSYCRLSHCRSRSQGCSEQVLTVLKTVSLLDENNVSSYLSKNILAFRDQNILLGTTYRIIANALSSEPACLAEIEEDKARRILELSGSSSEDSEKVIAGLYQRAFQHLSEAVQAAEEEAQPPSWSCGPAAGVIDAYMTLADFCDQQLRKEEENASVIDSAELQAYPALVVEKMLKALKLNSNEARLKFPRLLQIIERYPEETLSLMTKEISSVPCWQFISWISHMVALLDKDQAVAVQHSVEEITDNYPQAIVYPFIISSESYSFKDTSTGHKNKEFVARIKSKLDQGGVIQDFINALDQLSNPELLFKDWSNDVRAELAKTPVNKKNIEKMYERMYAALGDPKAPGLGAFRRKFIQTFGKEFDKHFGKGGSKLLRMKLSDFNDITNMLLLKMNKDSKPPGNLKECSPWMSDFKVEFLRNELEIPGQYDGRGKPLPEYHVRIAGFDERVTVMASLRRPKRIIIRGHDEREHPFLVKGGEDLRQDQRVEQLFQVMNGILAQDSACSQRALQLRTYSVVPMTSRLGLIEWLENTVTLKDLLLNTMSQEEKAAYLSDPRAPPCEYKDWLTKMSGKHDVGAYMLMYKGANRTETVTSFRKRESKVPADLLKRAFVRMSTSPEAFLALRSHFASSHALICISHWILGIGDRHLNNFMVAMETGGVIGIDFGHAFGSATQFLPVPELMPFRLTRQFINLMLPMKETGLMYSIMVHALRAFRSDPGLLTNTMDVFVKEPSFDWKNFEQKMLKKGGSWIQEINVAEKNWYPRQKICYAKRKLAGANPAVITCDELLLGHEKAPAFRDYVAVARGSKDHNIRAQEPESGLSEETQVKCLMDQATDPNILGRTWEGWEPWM
UniProt P10644, whole entry, looked up: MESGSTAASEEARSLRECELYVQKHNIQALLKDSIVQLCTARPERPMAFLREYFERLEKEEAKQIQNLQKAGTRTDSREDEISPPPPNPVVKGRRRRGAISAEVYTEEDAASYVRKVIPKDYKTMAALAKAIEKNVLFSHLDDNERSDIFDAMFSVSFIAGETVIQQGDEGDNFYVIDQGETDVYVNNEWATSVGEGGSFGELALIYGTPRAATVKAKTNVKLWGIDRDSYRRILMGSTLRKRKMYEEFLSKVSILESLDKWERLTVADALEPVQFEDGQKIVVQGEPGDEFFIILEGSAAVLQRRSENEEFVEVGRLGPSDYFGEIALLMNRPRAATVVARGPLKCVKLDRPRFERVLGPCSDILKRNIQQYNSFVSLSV
UniProt Q8WUF5: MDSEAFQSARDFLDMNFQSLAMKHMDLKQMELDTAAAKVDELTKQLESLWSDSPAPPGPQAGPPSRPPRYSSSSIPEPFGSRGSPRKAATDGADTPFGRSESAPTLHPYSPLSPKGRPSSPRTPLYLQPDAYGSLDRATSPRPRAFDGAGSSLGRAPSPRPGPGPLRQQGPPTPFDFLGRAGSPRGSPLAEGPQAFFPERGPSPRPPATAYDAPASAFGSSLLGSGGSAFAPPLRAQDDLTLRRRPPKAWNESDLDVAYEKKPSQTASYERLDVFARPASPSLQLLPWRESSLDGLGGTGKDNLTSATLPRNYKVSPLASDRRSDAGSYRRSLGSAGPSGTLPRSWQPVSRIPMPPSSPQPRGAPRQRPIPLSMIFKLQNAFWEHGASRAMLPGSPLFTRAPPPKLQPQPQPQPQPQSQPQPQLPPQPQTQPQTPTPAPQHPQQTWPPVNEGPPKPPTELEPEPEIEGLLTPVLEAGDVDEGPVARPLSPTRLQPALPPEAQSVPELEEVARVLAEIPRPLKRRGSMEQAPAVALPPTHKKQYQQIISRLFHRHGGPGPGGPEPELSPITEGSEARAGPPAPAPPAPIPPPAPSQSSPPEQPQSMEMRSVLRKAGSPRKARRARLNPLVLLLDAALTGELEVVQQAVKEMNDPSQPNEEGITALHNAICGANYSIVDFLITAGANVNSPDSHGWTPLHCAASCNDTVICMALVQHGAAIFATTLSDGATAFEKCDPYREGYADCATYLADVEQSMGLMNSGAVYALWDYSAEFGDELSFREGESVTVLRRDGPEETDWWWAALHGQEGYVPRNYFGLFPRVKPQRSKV

[2] = compound: CN1CCc2c(c3ccccc3n2Cc2ccc(C(=O)NO)cc2)C1 [Tubastatin A]
In short: as §1

[3] = compound: CNC(=O)C1=CC=CC=C1NC2=NC(=NC=C2Cl)NC3=C(C=C(C=C3)N4CCOCC4)OC
In short: as §1

[4] = compound: CNC(=O)c1ccc(Nc2ncc(C(F)(F)F)c(NCc3nccnc3N(C)S(C)(=O)=O)n2)cc1 [defactinib]
In short: as §1

[5] = compound: CNc1nc(-c2ccc3c(N)n[nH]c3c2)cc(N2C[C@@H](C(=O)NC3CCCCC3)CC[C@H]2C)n1
In short: as §1

[6] = compound: COC(=O)N[C@@H](C)CNc1nccc(-c2cn(C(C)C)nc2-c2cc(Cl)cc(NS(C)(=O)=O)c2F)n1 [encorafenib]
In short: as §1

[7] = compound: COC(=O)[C@H](CCSC)NC(=O)C1=C(C=C(C=C1)NC[C@H](CS)N)C2=CC=CC=C2
In short: as §1

[8] = compound: COc1cc(Nc2ncc3c(n2)-c2ccc(Cl)cc2C(c2c(F)cccc2OC)=NC3)ccc1C(=O)O [alisertib]
In short: as §1

[9] = compound: COc1cc2nc(-c3cc(F)ccc3O)nc(N[C@@H]3CNC[C@H]3C(C)(C)O)c2cc1OC
In short: as §1

[10] = compound: COc1cc2ncnc(Nc3ccc(F)c(Cl)c3)c2cc1OCCCN1CCOCC1 [gefitinib]
In short: as §1

[11] = compound: CS(=O)(=O)CCNCc1ccc(-c2ccc3ncnc(Nc4ccc(OCc5cccc(F)c5)c(Cl)c4)c3c2)o1 [lapatinib]
In short: as §1

[12] = compound: CS(=O)(=O)N1CCN(Cc2cc3nc(-c4cccc5[nH]ncc45)nc(N4CCOCC4)c3s2)CC1 [pictilisib]
In short: as §1

[13] = compound: C[C@@H](Oc1cc(-c2cnn(C3CCNCC3)c2)cnc1N)c1c(Cl)ccc(F)c1Cl [crizotinib]
In short: as §1

[14] = compound: C[C@H](C1=CC=C(C=C1)C(=O)NC2=C3C=CNC3=NC=C2)N
In short: as §1

[15] = compound: C[C@H](Nc1ncnc2nc[nH]c12)c1cc2cccc(Cl)c2c(=O)n1-c1ccccc1 [duvelisib]
In short: as §1

[16] = compound: Cc1cc(Nc2cc(CN3CCOCC3)c3nc(C)c(Cc4ccc(Cl)cc4F)n3n2)n[nH]1 [gandotinib]
In short: as §1

[17] = compound: Cc1cc(Nc2cc(N3CCN(C)CC3)nc(Sc3ccc(NC(=O)C4CC4)cc3)n2)n[nH]1 [tozasertib]
In short: as §1

[18] = compound: Cc1ccc(-n2nc(C(C)(C)C)cc2NC(=O)Nc2ccc(OCCN3CCOCC3)c3ccccc23)cc1 [doramapimod]
In short: as §1

[19] = compound: Cc1ccc(NC(=O)c2ccc(CN3CC[C@H](N(C)C)C3)c(C(F)(F)F)c2)cc1Nc1nccc(-c2cncnc2)n1 [bafetinib]
In short: as §1

[20] = compound: Cc1cccc(CC(=O)N2CCc3c2ccc(-c2cn(C)c4ncnc(N)c24)c3F)n1
In short: as §1

Measured: log2 fold change

PRPF31 (UniProt Q8WWY3)
inactive: [1] 0.023 | [2] -0.146 | [3] 0.012 | [4] 0.057 | [5] -0.041 | [6] -0.013 | [7] 0.014 | [8] 0 | [9] -0.027 | [10] 0.007 | [11] 0.013 | [12] 0.029 | [13] -0.014 | [14] 0.014 | [15] -0.017 | [16] -0.032 | [17] -0.008 | [18] 0.02 | [19] 0.017 | [20] -0.018

PRKCQ (UniProt Q04759)
inactive: [1] -0.062 | [2] -0.083 | [3] -0.059 | [4] -0.055 | [5] 0.024 | [6] -0.007 | [7] 0.003 | [8] 0.017 | [9] 0.122 | [10] 0.031 | [11] -0.022 | [12] 0.013 | [13] 0.038 | [14] -0.14 | [15] 0.022 | [16] -0.01 | [17] 0.035 | [18] 0.037 | [19] -0.037 | [20] 0.068

PRKCB isoform 2 (UniProt P05771)
inactive: [1] -0.004 | [2] 0.054 | [3] -0.029 | [4] -0.019 | [5] 0.03 | [6] 0.057 | [7] -0.203 | [8] 0.039 | [9] 0.148 | [10] 0.008 | [11] -0.001 | [12] 0.003 | [13] 0.036 | [14] -0.012 | [15] 0.033 | [16] -0.122 | [17] 0.035 | [18] 0.009 | [19] -0.01 | [20] 0.021

PPM1B (UniProt O75688)
inactive: [1] -0.029 | [2] 0.025 | [3] -0.016 | [4] -0.008 | [5] 0.091 | [6] 0.016 | [7] -0.012 | [8] -0.002 | [9] 0.008 | [10] 0.018 | [11] 0.013 | [12] -0.016 | [13] 0.004 | [14] -0.088 | [15] 0.004 | [16] 0.044 | [17] 0.005 | [18] 0.009 | [19] -0.038 | [20] 0.087

PRMT9 (UniProt Q6P2P2)
inactive: [1] -0.032 | [2] -0.031 | [3] -0.002 | [4] -0.015 | [5] -0.018 | [6] 0.001 | [7] 0.01 | [8] -0.018 | [9] 0.011 | [10] 0.014 | [11] -0.017 | [12] -0.009 | [13] -0.007 | [14] -0.088 | [15] 0.033 | [16] 0.012 | [17] 0.023 | [18] -0.038 | [19] -0.049 | [20] 0.052

PRPF38B (UniProt Q5VTL8)
inactive: [1] -0.008 | [2] 0.026 | [3] 0.051 | [4] 0.013 | [5] -0.01 | [6] 0.005 | [7] -0.049 | [8] 0.006 | [9] -0.003 | [10] -0.014 | [11] -0.006 | [12] -0.013 | [13] -0.004 | [14] -0.048 | [15] 0.035 | [16] -0.039 | [17] 0.028 | [18] -0.032 | [19] -0.005 | [20] 0.005

PPIP5K2 (UniProt O43314)
inactive: [1] 0.022 | [2] -0.074 | [3] 0.029 | [4] 0.032 | [5] -0.031 | [6] 0.003 | [7] 0.078 | [8] -0.007 | [9] -0.007 | [10] -0.017 | [11] -0.009 | [12] -0.006 | [13] -0.05 | [14] 0.074 | [15] 0.072 | [16] -0.114 | [17] 0.022 | [18] -0.018 | [19] -0.044 | [20] -0.052

PRPF4B (UniProt Q13523)
inactive: [1] -0.019 | [2] 0.004 | [3] 0.019 | [4] -0.034 | [5] 0.031 | [6] -0.005 | [7] 0.043 | [8] 0.013 | [9] -0.01 | [10] 0.017 | [11] -0.029 | [12] 0.011 | [13] 0.002 | [14] -0.034 | [15] -0.024 | [16] -0.029 | [17] 0.065 | [18] 0.003 | [19] -0.094 | [20] 0.033

Taken from the entries so far (2 entries):
PPIP5K2 (UniProt O43314)
inactive: [1] 0.022 | [2] -0.074 | [3] 0.029 | [4] 0.032 | [5] -0.031 | [6] 0.003 | [7] 0.078 | [8] -0.007 | [9] -0.007 | [10] -0.017 | [11] -0.009 | [12] -0.006 | [13] -0.05 | [14] 0.074 | [15] 0.072 | [16] -0.114 | [17] 0.022 | [18] -0.018 | [19] -0.044 | [20] -0.052

PRPF4B (UniProt Q13523)
inactive: [1] -0.019 | [2] 0.004 | [3] 0.019 | [4] -0.034 | [5] 0.031 | [6] -0.005 | [7] 0.043 | [8] 0.013 | [9] -0.01 | [10] 0.017 | [11] -0.029 | [12] 0.011 | [13] 0.002 | [14] -0.034 | [15] -0.024 | [16] -0.029 | [17] 0.065 | [18] 0.003 | [19] -0.094 | [20] 0.033

(cont.)

PRKDC (UniProt P78527)
inactive: [1] -0.06 | [2] -0.114 | [3] -0.002 | [4] 0.033 | [5] -0.03 | [6] -0.022 | [7] -0.035 | [8] 0.012 | [9] -0.003 | [11] -0.032 | [12] 0.155 | [13] -0.026 | [14] -0.088 | [15] 0.298 | [16] 0.132 | [17] -0.03 | [18] -0.038 | [19] -0.146 | [20] -0.074

PPP1R16A (UniProt Q96I34)
inactive: [1] -0.209 | [2] -0.08 | [3] 0.12 | [4] 0.106 | [6] 0.058 | [7] -0.093 | [9] 0.089 | [11] -0.023 | [12] -0.031 | [14] -0.13 | [16] 0.024 | [17] -0.013 | [19] 0.115 | [20] 0.015

PRPF40A (UniProt O75400)
inactive: [1] -0.02 | [2] -0.004 | [3] -0.014 | [4] 0.014 | [5] 0.025 | [6] 0.081 | [7] -0.023 | [8] -0.007 | [9] -0.02 | [10] -0.02 | [11] 0.003 | [12] 0.019 | [13] 0.072 | [14] 0.013 | [15] -0.015 | [16] 0.027 | [17] -0.003 | [18] 0.073 | [19] 0.046 | [20] -0.038

PPP1R3D (UniProt O95685)
inactive: [1] -0.058 | [2] -0.009 | [3] 0.039 | [4] 0.088 | [8] 0.078 | [9] -0.063 | [10] 0.01 | [11] -0.031 | [12] -0.004 | [13] 0.021 | [14] 0 | [16] 0.029 | [18] -0.043 | [19] 0.031 | [20] 0.01

PRKAR1A (UniProt P10644)
inactive: [1] 0.004 | [2] -0.048 | [3] -0.049 | [4] 0.004 | [5] -0.088 | [6] 0.012 | [7] 0.042 | [8] -0.015 | [9] 0.019 | [10] -0.015 | [11] -0.038 | [12] 0.036 | [13] -0.008 | [14] 0.011 | [15] 0.004 | [16] -0.104 | [17] 0.01 | [18] 0.035 | [19] 0.03 | [20] -0.022

PPP1R13L (UniProt Q8WUF5)
inactive: [1] -0.014 | [2] 0.075 | [3] 0.007 | [4] 0.15 | [6] 0.184 | [7] 0.038 | [8] -0.257 | [9] 0.017 | [10] -0.034 | [11] -0.154 | [12] 0.177 | [13] 0.045 | [14] -0.037 | [16] 0.133 | [17] 0.034 | [18] 0.045 | [19] 0.089 | [20] 0.03

PRAME (UniProt P78395)
inactive: [1] 0.034 | [2] -0.111 | [3] 0.024 | [4] 0.006 | [5] -0.006 | [6] -0.001 | [7] 0.13 | [8] 0.014 | [9] 0.009 | [10] -0.007 | [11] -0.012 | [12] -0.008 | [13] -0.08 | [14] -0.015 | [15] 0.005 | [16] -0.037 | [17] -0.013 | [18] 0.007 | [19] -0.062 | [20] 0.056
